Assay results as given in patent US11266655B2, “Methods and compositions for treating urea cycle disorders” (Camp4 Therapeutics Corporation, priority 2019, dated 2022).
At least one compound was matched to its structure with a doubt left.

Experiments:
[1] = system: urea cycle genes; assay: RNA-seq of primary human hepatocytes, compounds that modulate multiple urea cycle-related genes; assay type: cell-based; conditions: for Up-regulated Genes: urea cycle-related genes significantly increased (Table 10)
[2] = system: OTC; assay: JAK1 inhibitor dose titration in hepatocytes of donors A and B, OTC mRNA normalized to B2M; assay type: cell-based, human; conditions: both donor cell lines (A and B)
Description: (§1) Next, two JAK1 inhibitors were tested at increasing concentrations in a dose titration assy. Hepatocytes from two different donors (A and B) were incubated with the various concentrations of upadacitinib or oclacitinib maleate and harvested for mRNA analysis. OTC and CPS1 mRNA were normalized to house keeping gene B2M gene expression.

[3] = system: chromatin domain upstream of the OTC gene; assay: ATAC-seq of the OTC insulated neighborhood in inhibitor-treated hepatocytes; conditions: 17 hours of inhibitor treatment
[4] = system: CPS1; assay: JAK1 inhibitor dose titration in hepatocytes of donors A and B, CPS1 mRNA normalized to B2M; assay type: cell-based, human; conditions: both donor cell lines (A and B)
Description: as §1

[5] = system: Otc; assay: JAK1 inhibitors in C57/B16 mice, liver Otc mRNA by qRT-PCR; assay type: in vivo, mouse; conditions: i.p. once daily for 4 days, 6 hours after administration, vs control treated mice
[6] = system: Cps1; assay: JAK1 inhibitors in C57/B16 mice, liver Cps1 mRNA by qRT-PCR; assay type: in vivo, mouse; conditions: i.p. once daily for 4 days, 6 hours after administration, vs control treated mice
[7] = system: Socs1; assay: JAK1 inhibitors in C57/B16 mice, Socs1 mRNA; assay type: in vivo, mouse; conditions: i.p. once daily for 4 days

Row | Compound | number of urea cycle genes whose expression was significantly up-regulated [1] | Up-regulated Genes [1] | OTC mRNA expression, dose titration [2] | newly accessible chromatin domain upstream of the OTC gene (ATAC-seq) [3] | CPS1 mRNA expression, dose titration [4] | Otc expression in liver [5] | Cps1 expression in liver [6] | Socs1 mRNA expression [7]
1 | C=CCNC1=C2C[C@@H](C)C[C@H](OC)[C@H](O)[C@@H](C)/C=C(\C)[C@H](OC(N)=O)[C@@H](OC)/C=C\C=C(/C)C(=O)NC(=CC1=O)C2=O [17-AAG (Tanespimycin), Tanespimycin] | three | CPS1, ARG1, SLC25A13 | – | – | – | – | – | –
2 | COc1cc(Nc2c(C#N)cnc3cc(OCCCN4CCN(C)CC4)c(OC)cc23)c(Cl)cc1Cl [Bosutinib] | five | ASS1, CPS1, NAGS, ARG1, SLC25A15 | – | – | – | – | – | –
3 | CC[C@@H]1CN(C(=O)NCC(F)(F)F)C[C@@H]1c1cnc2cnc3[nH]ccc3n12 [upadacitinib] | – | – | dose dependent increase | newly accessible chromatin domain | dose dependent increase | increased | increased | decreased
